This note sets out measurements from article PMC5179494.

No constants are given. Whether binding was seen depends on the method and setting. Some entries that bind do so weakly or less than the wild type.

The assay has as its target T1, Thermus aquaticus toxin (TaqDarT) (Thermus aquaticus) (UniProt P0DV56).
T1 sequence: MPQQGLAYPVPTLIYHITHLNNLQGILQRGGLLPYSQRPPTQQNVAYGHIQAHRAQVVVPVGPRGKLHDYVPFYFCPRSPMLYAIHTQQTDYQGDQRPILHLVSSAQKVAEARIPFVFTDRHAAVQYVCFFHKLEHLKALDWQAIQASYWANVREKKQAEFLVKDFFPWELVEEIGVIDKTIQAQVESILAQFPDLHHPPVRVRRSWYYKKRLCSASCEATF
Put plainly: SEC; both purified. Background: In gel filtration, larger molecules generally elute earlier.

B1: Thermus aquaticus antitoxin (TaqDarG) (enzyme, UniProt P0DV57 1-360)
chain: MLRFVRGNLLEAPVEALVNTVNTVGVMGKGVALQFKRAFPDNYQAYVKACERGQVQIGRIFVYDRGPLAQPRYIFNFPTKKHWRHPSRMEYVEEGLKDLVCRIQELRVRSIALPPLGAGNGGLPWPEVKQRIQEALEALEGVEVWVYEPVENPKAHSIVPLKTKPRLTPARAALLKLFGLYGALGEPLGRLEAQKLAYFLQEAGLDLKLDFACKQFGPYAEPLNHVLARLEGHYIQGFGDRTGISQIRLKPQALDEAVLFLADYPKADEAATRAADWVKGFETPYGLELLATVHWAVRHEGARDWASLQKRLQAWNPRKATFPKTHLQVALDALLKRGALRPEEWQDRPPKLPANVAQEA
On to B1, for which the binding result is “binds”.
